In publication PMC4439085 one finds binding data, which are given here for 1 substance.

Sequences of proteins named here, by UniProt entry; tags and fusion partners are left off.
UniProt P40235: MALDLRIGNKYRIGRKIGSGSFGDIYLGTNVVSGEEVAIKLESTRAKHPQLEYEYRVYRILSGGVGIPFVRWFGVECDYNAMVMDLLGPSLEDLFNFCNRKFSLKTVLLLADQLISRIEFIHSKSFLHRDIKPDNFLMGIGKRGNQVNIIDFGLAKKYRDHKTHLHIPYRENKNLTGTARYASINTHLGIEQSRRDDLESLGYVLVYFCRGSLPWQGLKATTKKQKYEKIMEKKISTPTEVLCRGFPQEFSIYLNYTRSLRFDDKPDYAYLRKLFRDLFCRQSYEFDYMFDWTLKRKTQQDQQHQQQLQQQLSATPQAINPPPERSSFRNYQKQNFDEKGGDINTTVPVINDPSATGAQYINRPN

No constants are given. Whether binding was seen depends on the method and setting. Binding seen in cells or lysates may run through a third protein. Some entries that bind do so weakly or less than the wild type. Sequences can lack the tags named with a protein.

The target in the test is T1, Hhp2-TAP (Schizosaccharomyces pombe) (UniProt P40236).
T1 sequence: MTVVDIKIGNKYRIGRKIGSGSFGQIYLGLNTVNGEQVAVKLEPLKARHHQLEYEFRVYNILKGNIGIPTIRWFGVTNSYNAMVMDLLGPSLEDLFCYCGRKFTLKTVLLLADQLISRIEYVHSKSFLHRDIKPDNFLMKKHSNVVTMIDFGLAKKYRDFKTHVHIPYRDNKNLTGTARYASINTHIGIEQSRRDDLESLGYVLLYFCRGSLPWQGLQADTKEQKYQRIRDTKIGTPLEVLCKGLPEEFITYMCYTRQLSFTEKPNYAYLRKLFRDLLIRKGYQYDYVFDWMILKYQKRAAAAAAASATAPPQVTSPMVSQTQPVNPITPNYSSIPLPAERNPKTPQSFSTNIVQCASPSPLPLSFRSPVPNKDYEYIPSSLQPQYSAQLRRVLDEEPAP
Nature of the test: co-IP; extracts of cells induced for meiosis; Hhp2-TAP bound to IgG beads, Hhp1-PK9 detected by Western blotting with anti-PK antibody. (In general: A western blot detects proteins with antibodies after separation by electrophoresis.)

Take “Hhp1-PK9 (from UniProt P40235 1-365) (enzyme)”: the binding entry is recorded as “binds”.
